The results in this text go back to patent US8044198B2, “Sirtuin modulating compounds” (Sirtris Pharmaceuticals, Inc., priority 2005, dated 2011).

The chains behind the UniProt entries cited, without tags or fusion partners.
UniProt Q96EB6, whole entry: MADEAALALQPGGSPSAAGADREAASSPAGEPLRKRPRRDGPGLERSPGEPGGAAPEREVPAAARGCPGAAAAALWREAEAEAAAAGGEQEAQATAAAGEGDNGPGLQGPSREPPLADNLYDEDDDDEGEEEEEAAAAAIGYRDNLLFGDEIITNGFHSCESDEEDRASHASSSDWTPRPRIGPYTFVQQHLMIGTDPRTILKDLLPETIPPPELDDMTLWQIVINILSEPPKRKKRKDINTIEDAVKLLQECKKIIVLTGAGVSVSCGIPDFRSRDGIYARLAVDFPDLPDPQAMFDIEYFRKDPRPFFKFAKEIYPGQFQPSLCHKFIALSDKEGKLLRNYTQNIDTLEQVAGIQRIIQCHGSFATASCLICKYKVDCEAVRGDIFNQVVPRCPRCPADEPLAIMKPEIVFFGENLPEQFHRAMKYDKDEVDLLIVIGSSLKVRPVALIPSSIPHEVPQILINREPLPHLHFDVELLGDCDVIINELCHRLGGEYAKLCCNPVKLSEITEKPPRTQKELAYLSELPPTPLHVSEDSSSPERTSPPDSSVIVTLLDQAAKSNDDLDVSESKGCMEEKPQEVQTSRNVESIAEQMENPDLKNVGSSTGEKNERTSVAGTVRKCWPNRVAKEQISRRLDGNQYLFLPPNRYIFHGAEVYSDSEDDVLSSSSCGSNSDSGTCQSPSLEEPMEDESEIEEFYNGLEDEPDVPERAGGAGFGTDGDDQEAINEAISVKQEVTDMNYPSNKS

Each structure is given as a SMILES string. The structures given here were assigned with low confidence; some may be wrong.

The test addresses SIRT1 (Homo sapiens, UniProt Q96EB6). Nature of the test: SIRT1 mass spectrometry (MS) based deacetylation assay. On FOLD ACT. MS: test concentration or dose not given here. The format is biochemical.

Consider `COc1cc(C(=O)Nc2cccc(-c3nc4ncccc4o3)c2)ccc1CN1CCOCC1`, for which the “FOLD ACT. MS” value (fold activation of SIRT1, mass spectrometry assay) is listed as “B (B (Fold Activation <250%))”. Under “read-out: ED50 MS ASSAY, SIRT1 activation, mass spectrometry assay”, the EC50 is < 5 µM.
